Not every detail of the peptide structures is certain; ends, links or a residue may be inferred. Where a SMILES comes first, the peptide text is derived from it.
Target: bacterial collagenase
Experiment: Inhibition of bacterial collagenase; Ki from dissociation and association rate constants, substrate Fa--Leu--Gly--Pro--Ala
Format: biochemical, Empedobacterium collagenolyticum
Conditions: ratio Koff/Kon, slow binding inhibitors, pH7 Tricine buffer
Procedure: The activities of the different compounds A, B, C and D were determined on the one hand by measuring the association rate constant of the inhibitors to collagenase by the method of Morrison, J. & Walsh, C. T., 1987, Adv., Enzymol. Relat. Aeras Mol. Biol. applied in the case where the inhibitors are of the slow binding type and on the other hand by measuring the dissociation rate constants of the inhibitors of the enzyme--inhibitor complex. In this case, after allowing the collagenase to preincubate in the presence of an inhibitor excess, the thus formed enzyme--inhibitor complex is purified by gel filtration. The solution containing the purified complex is then diluted by a factor of 10,000 in a reference buffer and then, as a function of time, measurement takes place of the return of the activity of the collagenase, which represents the dissociation of the inhibitor of the enzyme--inhibitor complex.
The inhibition constants given in the table correspond to the ratio of the dissociation rate constants Koff and the association rate constants Kon measured in this way. In all the activity measurement experiments we used as the synthetic substrate Fa--Leu--Gly--Pro--Ala in a pH7 Tricine buffer. The source of the bacterial collagenase used was the strain Empedobacterium collagenolyticum.

With CCCC[C@@H]1NC(=O)[C@@H]2CCCN2C(=O)CCP(=O)(O)C(Cc2ccccc2)NC(=O)[C@@H]2CCCN2C(=O)CNC1=O (stereo partly shown) [D] (HELM PEPTIDE1{G.P.[O=C(CCP(=O)(O)C(Cc1ccccc1)N[*:1])[*:2]].P.[Nle]}$PEPTIDE1,PEPTIDE1,1:R1-5:R2$$$V2.0) the Ki was 8 nM.
